Test results reported in PubChem BioAssay (NCATS).
Shown are results outside the selection of hits, which stands elsewhere. Records with an inconclusive call do not appear. Activity calls are given as the source filed them. Calls come from the whole dose curve; as a rule, active = well fitted inhibition curve with a large enough effect; inconclusive = small, poorly fitted or top-dose-only effect; inactive = flat fitted curve, though single readings scatter.

Key:
Assay in all cases: qHTS profiling for inhibitors of Plasmodium falciparum proliferation (AID 504749);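 note: 0% = DMSO vehicle and full inhibition = artemisinin control; nearly all actives have a fitted effect of over 60% in size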
Conditions in all cases: P. falciparum in erythrocytes, SYBR Green DNA, 72 h; at 28.7 µM (top of the series)
[1] = tested on: FAB9
Outline: (§1)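 Fluorescence of SYBR Green-bound parasite DNA, read at 485/535 nm, served as the growth measure. Infected erythrocytes were cultured with compound 72 h; artemisinin (0.29 uM) and DMSO wells defined the normalization range.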

[2] = tested on: HB3
Outline: as §1

[3] = tested on: ICS
Outline: as §1

[4] = tested on: JCK
Outline: as §1

[5] = tested on: N140
Outline: as §1

[6] = tested on: P93_24
Outline: as §1

[7] = tested on: P94_40
Outline: as §1

[8] = tested on: PAD
Outline: as §1

[9] = tested on: PC15
Outline: as §1

[10] = tested on: PC49
Outline: as §1

[11] = tested on: SC27B
Outline: as §1

[12] = tested on: TAB109
Outline: as §1

[13] = tested on: TAB113
Outline: as §1

[14] = tested on: TAB165
Outline: as §1

[15] = tested on: W2
Outline: as §1

Measured: activity, negative = inhibition

CC(C)(C)c1ccc(O)cc1
inactive: [1] 8.6% | [2] 2.68% | [3] 18.9% | [4] 4.55% | [5] 4.8% | [6] -4.12% | [7] 5.04% | [8] 15.5% | [9] -2.44% | [10] 3.92% | [11] -0.172% | [12] -0.162% | [13] 2.47% | [14] 14.8% | [15] 14.5%
